Data: paper PMC4230841
These are yes or no findings as the source states them, for the method shown. Binding seen in cells or lysates may run through a third protein. Some results given as binding are weak or reduced against the parent protein; the word gives no strength. Sequences can lack the tags named with a protein.

Amino acid sequences for entries named in this document (tags omitted).
UniProt Q94899: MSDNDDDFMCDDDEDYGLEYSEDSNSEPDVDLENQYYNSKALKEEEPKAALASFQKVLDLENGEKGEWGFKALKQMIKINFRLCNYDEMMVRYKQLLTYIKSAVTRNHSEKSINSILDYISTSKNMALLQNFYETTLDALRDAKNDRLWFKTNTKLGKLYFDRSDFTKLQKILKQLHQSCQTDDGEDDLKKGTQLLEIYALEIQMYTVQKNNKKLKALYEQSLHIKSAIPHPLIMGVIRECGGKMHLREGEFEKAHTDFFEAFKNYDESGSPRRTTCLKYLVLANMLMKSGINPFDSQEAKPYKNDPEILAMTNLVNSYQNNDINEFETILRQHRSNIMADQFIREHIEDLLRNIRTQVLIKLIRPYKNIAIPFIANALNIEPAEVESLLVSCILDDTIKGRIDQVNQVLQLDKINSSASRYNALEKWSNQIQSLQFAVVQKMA
UniProt Q9XZ58: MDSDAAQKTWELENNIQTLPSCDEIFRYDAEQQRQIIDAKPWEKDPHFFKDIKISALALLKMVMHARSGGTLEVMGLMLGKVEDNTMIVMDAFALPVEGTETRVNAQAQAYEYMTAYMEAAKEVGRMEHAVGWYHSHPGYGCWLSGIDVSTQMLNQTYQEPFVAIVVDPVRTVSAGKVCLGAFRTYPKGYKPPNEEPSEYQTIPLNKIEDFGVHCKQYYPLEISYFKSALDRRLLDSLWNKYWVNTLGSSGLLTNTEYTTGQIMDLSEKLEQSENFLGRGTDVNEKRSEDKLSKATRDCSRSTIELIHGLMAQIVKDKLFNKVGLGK
UniProt Q9V345: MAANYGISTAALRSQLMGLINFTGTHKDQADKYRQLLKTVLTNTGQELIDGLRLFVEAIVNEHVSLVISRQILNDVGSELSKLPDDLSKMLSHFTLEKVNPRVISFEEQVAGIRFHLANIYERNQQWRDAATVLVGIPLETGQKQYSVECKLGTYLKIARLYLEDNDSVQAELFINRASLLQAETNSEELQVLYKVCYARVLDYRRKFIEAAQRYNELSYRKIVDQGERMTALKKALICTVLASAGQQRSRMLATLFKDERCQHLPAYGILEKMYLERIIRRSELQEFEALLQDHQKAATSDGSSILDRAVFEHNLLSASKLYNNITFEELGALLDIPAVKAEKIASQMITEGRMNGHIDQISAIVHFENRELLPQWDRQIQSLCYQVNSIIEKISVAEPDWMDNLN

T1: Flag-USP (Drosophila) (UniProt P20153)
T1 sequence: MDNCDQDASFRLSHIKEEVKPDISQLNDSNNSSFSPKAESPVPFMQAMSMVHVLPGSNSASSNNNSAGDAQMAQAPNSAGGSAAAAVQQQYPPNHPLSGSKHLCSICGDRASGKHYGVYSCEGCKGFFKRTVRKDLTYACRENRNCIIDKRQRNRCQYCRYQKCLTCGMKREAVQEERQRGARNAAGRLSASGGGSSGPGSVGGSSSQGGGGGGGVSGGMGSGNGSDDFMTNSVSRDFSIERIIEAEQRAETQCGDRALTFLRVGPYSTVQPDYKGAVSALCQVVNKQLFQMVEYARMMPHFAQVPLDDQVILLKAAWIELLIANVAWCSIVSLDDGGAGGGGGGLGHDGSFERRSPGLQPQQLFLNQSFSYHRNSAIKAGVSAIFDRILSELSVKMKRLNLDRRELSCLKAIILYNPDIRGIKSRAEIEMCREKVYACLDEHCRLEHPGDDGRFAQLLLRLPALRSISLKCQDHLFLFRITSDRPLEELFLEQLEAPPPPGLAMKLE


What was measured:
Test in all cases: co-IP; S2 cells co-transfected with one Flag-tagged protein and Myc-tagged EcRA or EcRB1; lysed in mRIPA buffer (50 mM Tris-HCl pH 7.8, 150 mM NaCl, 5 mM EDTA, 0.5% Triton X-100, 0.5% NP-40); ANTI-FLAG M2 Affinity Gel overnight at 4°C; western blot with anti-Flag and anti-c-Myc
[1] = molecular target: Flag-tagged CSN2 (Drosophila) (UniProt Q94899)
Flag-USP (Drosophila) = molecular target: T1, Flag-USP (Drosophila)
[2] = molecular target: Flag-tagged CSN5 (Drosophila) (UniProt Q9XZ58)
[3] = molecular target: Flag-tagged CSN4 (Drosophila) (UniProt Q9V345)

Row | binding [1] | binding (Flag-USP (Drosophila)) | binding [2] | binding [3] | Binder
1 | binds | binds | binds | binds | Myc-tagged EcRB1 (receptor, UniProt P34021-1 1-878) MKRRWSNNGGFMRLPEESSSEVTSSSNGLVLPSGVNMSPSSLDSHDYCDQDLWLCGNESGSFGGSNGHGLSQQQQSVITLAMHGCSSTLPAQTTIIPINGNANGNGGSTNGQYVPGATNLGALANGMLNGGFNGMQQQIQNGHGLINSTTPSTPTTPLHLQQNLGGAGGGGIGGMGILHHANGTPNGLIGVVGGGGGVGLGVGGGGVGGLGMQHTPRSDSVNSISSGRDDLSPSSSLNGYSANESCDAKKSKKGPAPRVQEELCLVCGDRASGYHYNALTCEGCKGFFRRSVTKSAVYCCKFGRACEMDMYMRRKCQECRLKKCLAVGMRPECVVPENQCAMKRREKKAQKEKDKMTTSPSSQHGGNGSLASGGGQDFVKKEILDLMTCEPPQHATIPLLPDEILAKCQARNIPSLTYNQLAVIYKLIWYQDGYEQPSEEDLRRIMSQPDENESQTDVSFRHITEITILTVQLIVEFAKGLPAFTKIPQEDQITLLKACSSEVMMLRMARRYDHSSDSIFFANNRSYTRDSYKMAGMADNIEDLLHFCRQMFSMKVDNVEYALLTAIVIFSDRPGLEKAQLVEAIQSYYIDTLRIYILNRHCGDSMSLVFYAKLLSILTELRTLGNQNAEMCFSLKLKNRKLPKFLEEIWDVHAIPPSVQSHLQITQEENERLERAERMRASVGGAITAGIDCDSASTSAAAAAAQHQPQPQPQPQPSSLTQNDSQHQTQPQLQPQLPPQLQGQLQPQLQPQLQTQLQPQIQPQPQLLPVSAPVPASVTAPGSLSAVSTSSEYMGGSAAIGPITPATTSSITAAVTASSTTSAVPMGNGVGVGVGVGGNVSMYANAQTAMALMGVALHSHQEQLIGGVAVKSEHSTTA
2 | binds | binds | binds | binds | Myc-tagged EcRA (receptor, UniProt P34021-2 1-849) MLTTSGQQQSKQKLSTLPSHILLQQQLAASAGPSSSVSLSPSSSAALTLHVASANGGARETTSAAAVKDKLRPTPTAIKIEPMPDVISVGTVAGGSSVATVVAPAATTTSNKPNSTAAPSTSAAAANGHLVLVPNKRPRLDVTEDWMSTPSPGSVPSSAPPLSPSPGSQNHSYNMSNGYASPMSAGSYDPYSPTGKTGRDDLSPSSSLNGYSANESCDAKKSKKGPAPRVQEELCLVCGDRASGYHYNALTCEGCKGFFRRSVTKSAVYCCKFGRACEMDMYMRRKCQECRLKKCLAVGMRPECVVPENQCAMKRREKKAQKEKDKMTTSPSSQHGGNGSLASGGGQDFVKKEILDLMTCEPPQHATIPLLPDEILAKCQARNIPSLTYNQLAVIYKLIWYQDGYEQPSEEDLRRIMSQPDENESQTDVSFRHITEITILTVQLIVEFAKGLPAFTKIPQEDQITLLKACSSEVMMLRMARRYDHSSDSIFFANNRSYTRDSYKMAGMADNIEDLLHFCRQMFSMKVDNVEYALLTAIVIFSDRPGLEKAQLVEAIQSYYIDTLRIYILNRHCGDSMSLVFYAKLLSILTELRTLGNQNAEMCFSLKLKNRKLPKFLEEIWDVHAIPPSVQSHLQITQEENERLERAERMRASVGGAITAGIDCDSASTSAAAAAAQHQPQPQPQPQPSSLTQNDSQHQTQPQLQPQLPPQLQGQLQPQLQPQLQTQLQPQIQPQPQLLPVSAPVPASVTAPGSLSAVSTSSEYMGGSAAIGPITPATTSSITAAVTASSTTSAVPMGNGVGVGVGVGGNVSMYANAQTAMALMGVALHSHQEQLIGGVAVKSEHSTTA
